Data from patent US8173631B2, “Cyclic amine compounds” (Daiichi Sankyo Company, Limited, priority 2008, dated 2012).
Some results were stated once for a whole list of compounds, not compound by compound.

System: PTH secretion
Assay: Evaluation of PTH secretion promoting activity in a rat (blood serum PTH after oral administration)
Assay type: in vivo
Details: female F344 rat, oral 3 mg/5 mL/kg; for blood serum PTH concentration at 5 minutes to 15 minutes: 5 to 15 minutes after administration
Description: Evaluation of PTH Secretion Promoting Activity in a Rat
A 10 to 14-week old female F344 rat (Charles River Japan, Inc.) fasted overnight was anesthetized using ether, and blood serum before the administration was prepared by drawing blood from the jugular vein of the animal. Subsequently, the test compound was orally administered at a dose of 3 mg/5 mL/kg using a solvent (0.5% aqueous methyl cellulose solution containing 5% DMA). Blood was drawn from the jugular vein under ether anesthesia at 5, 15, 30, 60, 120, and 240 minutes after the administration of the test compound, and the blood serum was prepared. The blood serum PTH concentration was measured using rat Intact PTH ELISA kit (manufactured by Immutopics, Inc.).

Row | Structure (SMILES) | blood serum PTH concentration at 5 minutes to 15 minutes [pg/mL] | blood serum PTH concentration after 240 minutes [pg/mL]
1 | Cc1ccc(C[C@@H]2CCCN2C[C@@H](O)CO[C@H](C)c2ccccc2CCC(=O)O)cc1F [Example 2, 3-{2-[(1R)-1-({(2R)-3-[(2S)-2-(3-Fluoro-4-methylbenzyl)pyrrolidin-1-yl]-2-hydroxypropyl}oxy)ethyl]phenyl}propanoic acid] | ≥ 400 | ≤ 150
2 | Cc1ccc(C[C@@H]2CCCN2C[C@@H](O)CO[C@H](C)c2cccc(C)c2CCC(=O)O)cc1F [Example 3, 3-{2-[(1R)-1-({(2R)-3-[(2S)-2-(3-Fluoro-4-methylbenzyl)pyrrolidin-1-yl]-2-hydroxypropyl}oxy)ethyl]-6-methylphenyl}propanoic acid] | ≥ 400 | ≤ 150
3 | Cc1ccc([C@@H](C)OC[C@H](O)CN2CCC[C@H]2Cc2ccc(C)c(F)c2)c(CCC(=O)O)c1 [Example 4, 3-{2-[(1R)-1-({(2R)-3-[(2S)-2-(3-Fluoro-4-methylbenzyl)pyrrolidin-1-yl]-2-hydroxypropyl}oxy)ethyl]-5-methylphenyl}propanoic acid] | ≥ 400 | ≤ 150
4 | Cc1ccc(C[C@@H]2CCCN2C[C@@H](O)CO[C@H](C)c2cccc(F)c2CCC(=O)O)cc1F [Example 6, 3-{2-Fluoro-6-[(1R)-1-({(2R)-3-[(2S)-2-(3-fluoro-4-methylbenzyl)pyrrolidin-1-yl]-2-hydroxypropyl}oxy)ethyl]phenyl}propanoic acid] | ≥ 400 | ≤ 150
5 | Cc1ccc(C[C@@H]2CCCN2C[C@@H](O)CO[C@H](C)c2cc(F)ccc2CCC(=O)O)cc1F [Example 8, 3-{4-Fluoro-2-[(1R)-1-({(2R)-3-[(2S)-2-(3-fluoro-4-methylbenzyl)pyrrolidin-1-yl]-2-hydroxypropyl}oxy)ethyl]phenyl}propanoic acid] | ≥ 400 | ≤ 150
6 | Cc1ccc(C[C@@H]2CCCN2C[C@@H](O)CO[C@H](C)c2cccc(C(F)(F)F)c2CCC(=O)O)cc1F [Example 9, 3-{2-[(1R)-1-({(2R)-3-[(2S)-2-(3-Fluoro-4-methylbenzyl)pyrrolidin-1-yl]-2-hydroxypropyl}oxy)ethyl]-6-(trifluoromethyl)phenyl}propanoic acid] | ≥ 400 | ≤ 150
7 | Cc1ccc(C[C@@H]2CCCN2C[C@@H](O)CO[C@H](C)c2ccccc2CCCCC(=O)O)cc1F [Example 13, 5-{2-[(1R)-1-({(2R)-3-[(2S)-2-(3-Fluoro-4-methylbenzyl)pyrrolidin-1-yl]-2-hydroxypropyl}oxy)ethyl]phenyl}pentanoic acid] | ≥ 400 | ≤ 150
8 | Cc1ccc(C[C@@H]2CCN2C[C@@H](O)CO[C@H](C)c2ccccc2CCC(=O)O)cc1F [Example 14, 3-{2-[(1R)-1-({(2R)-3-[(2R)-2-(3-Fluoro-4-methylbenzyl)azetidin-1-yl]-2-hydroxypropyl}oxy)ethyl]phenyl}propanoic acid] | ≥ 400 | ≤ 150
9 | Cc1ccc(C[C@@H]2CCN2C[C@@H](O)CO[C@H](C)c2ccccc2CCCCC(=O)O)cc1F [Example 15, 5-{2-[(1R)-1-({(2R)-3-[(2R)-2-(3-Fluoro-4-methylbenzyl)azetidin-1-yl]-2-hydroxypropyl}oxy)ethyl]phenyl}pentanoic acid] | ≥ 400 | ≤ 150
10 | COc1cccc([C@@H](C)OC[C@H](O)CN2CCC[C@H]2Cc2ccc(C)c(F)c2)c1CCC(=O)O [Example 18] | ≥ 400 | ≤ 150
11 | CC[C@@H](OC[C@H](O)CN1CCC[C@H]1Cc1ccc(C)c(F)c1)c1ccccc1CCC(=O)O [Example 19] | ≥ 400 | ≤ 150
12 | CCC[C@@H](OC[C@H](O)CN1CCC[C@H]1Cc1ccc(C)c(F)c1)c1ccccc1CCC(=O)O [Example 21] | ≥ 400 | ≤ 150
13 | Cc1ccc(C[C@@H]2CCCN2C[C@@H](O)CO[C@H](C)c2cc(F)c(C)cc2CCC(=O)O)cc1F [Example 22] | ≥ 400 | ≤ 150
14 | Cc1ccc(C[C@@H]2CCCN2C[C@@H](O)CO[C@H](C)c2cc(F)c(C)cc2CCCCC(=O)O)cc1F [Example 23] | ≥ 400 | ≤ 150
15 | Cc1ccc(C[C@@H]2CCCN2C[C@@H](O)CO[C@H](C)c2cc(F)c(F)cc2CCC(=O)O)cc1F [Example 26] | ≥ 400 | ≤ 150
16 | Cc1ccc(C[C@@H]2CCCN2C[C@@H](O)CO[C@H](C)c2cc(F)cc(F)c2CCC(=O)O)cc1F [Example 27] | ≥ 400 | ≤ 150
17 | Cc1ccc(C[C@@H]2CCCN2C[C@@H](O)CO[C@@H](c2ccccc2CCC(=O)O)C2CC2)cc1F [Example 29] | ≥ 400 | ≤ 150
18 | Cc1ccc(C[C@@H]2CCCN2C[C@@H](O)COC(C)c2c(CCC(=O)O)ccc(F)c2F)cc1F (stereo partly shown) [Example 34] | ≥ 400 | ≤ 150

Row | Structure (SMILES) | blood serum PTH concentration at 5 minutes to 15 minutes [pg/mL] | blood serum PTH concentration after 240 minutes [pg/mL]
19 | CC[C@@H](OC[C@H](O)CN1CCC[C@H]1Cc1ccc(C)c(F)c1)c1cc(F)ccc1CCC(=O)O [Example 43] | ≥ 400 | ≤ 150
20 | CC[C@@H](OC[C@H](O)CN1CCC[C@H]1Cc1ccc(C)c(F)c1)c1cccc(F)c1CCC(=O)O [Example 44] | ≥ 400 | ≤ 150
21 | CC[C@@H](OC[C@H](O)CN1CCC[C@H]1Cc1ccc(C)c(F)c1)c1ccc(C)cc1CCC(=O)O [Example 45] | ≥ 400 | ≤ 150
22 | CC[C@@H](OC[C@H](O)CN1CCC[C@H]1Cc1ccc(C)c(F)c1)c1cccc(OC)c1CCC(=O)O [Example 46] | ≥ 400 | ≤ 150
23 | CC[C@@H](OC[C@H](O)CN1CCC[C@H]1Cc1ccc(C)c(F)c1)c1cccc(C)c1CCC(=O)O [Example 47] | ≥ 400 | ≤ 150
24 | Cc1ccc([C@@H](C)OC[C@H](O)CN2CCC[C@H]2Cc2ccc(C)c(F)c2)c(CCCCC(=O)O)c1 [Example 53] | ≥ 400 | ≤ 150
25 | Cc1ccc(C[C@@H]2CCCN2C[C@@H](O)CO[C@H](C)c2ccc(F)cc2CCCCC(=O)O)cc1F [Example 54] | ≥ 400 | ≤ 150
26 | Cc1ccc(C[C@@H]2CCCN2C[C@@H](O)CO[C@H](C)c2cc(F)ccc2CCCCC(=O)O)cc1F [Example 55] | ≥ 400 | ≤ 150
27 | Cc1ccc(C[C@@H]2CCCN2C[C@@H](O)CO[C@H](C)c2cccc(C)c2CCCCC(=O)O)cc1F [Example 57] | ≥ 400 | ≤ 150
28 | CCC[C@@H](OC[C@H](O)CN1CCC[C@H]1Cc1ccc(C)c(F)c1)c1cccc(F)c1CCC(=O)O [Example 63] | ≥ 400 | ≤ 150
29 | CCC[C@@H](OC[C@H](O)CN1CCC[C@H]1Cc1ccc(C)c(F)c1)c1ccc(C)cc1CCC(=O)O [Example 64] | ≥ 400 | ≤ 150
30 | CCC[C@@H](OC[C@H](O)CN1CCC[C@H]1Cc1ccc(C)c(F)c1)c1cccc(OC)c1CCC(=O)O [Example 65] | ≥ 400 | ≤ 150
31 | CC[C@@H](OC[C@H](O)CN1CCC[C@H]1Cc1ccc(C)c(F)c1)c1cc(F)c(C)cc1CCC(=O)O [Example 69] | ≥ 400 | ≤ 150
32 | Cc1ccc(C[C@@H]2CCCN2C[C@@H](O)CO[C@H](C)c2ccc(Cl)cc2CCC(=O)O)cc1F [Example 78] | ≥ 400 | ≤ 150
33 | Cc1ccc(C[C@@H]2CCCN2C[C@@H](O)CO[C@H](C)c2cccc(Cl)c2CCC(=O)O)cc1F [Example 80] | ≥ 400 | ≤ 150
34 | Cc1ccc(C[C@@H]2CCCN2C[C@@H](O)CO[C@H](C)c2ccccc2CCC(=O)O)cc1Cl [Example 84] | ≥ 400 | ≤ 150
35 | CCc1cc(C[C@@H]2CCCN2C[C@@H](O)CO[C@H](C)c2ccccc2CCC(=O)O)ccc1Cl [Example 89] | ≥ 400 | ≤ 150
